# Experimental data taken from publication doi:10.1101/779520.
# B1: calbindin-D28k (protein, UniProt P12658 1-261)
# chain: MAESHLQSSLITASQFFEIWLHFDADGSGYLEGKELQNLIQELLQARKKAGLELSPEMKSFVDQYGQRDDGKIGIVELAHVLPTEENFLLLFRCQQLKSCEEFMKTWRKYDTDHSGFIETEELKNFLKDLLEKANKTVDDTKLAEYTDLMLKLFDSNNDGKLELTEMARLLPVQENFLLKFQGIKMCGKEFNKAFELYDQDGNGYIDENELDALLKDLCEKNKQELDINNITTYKKNIMALSDGGKLYRTDLALILSAGDN
# Target: HA-tagged full-length otoferlin (mCherry-P2A-mOtof-HA) (mouse)
# Test: pull-down
binder,measurement,value
B1,binding,binds

# These are yes or no findings as the source states them, for the method shown. In cells and extracts the contact can be indirect. Binding calls can cover weak binding; strength is not graded here.
